Results as given in patent US20210213145A1 (TAYU HUAXIA BIOTECH MEDICAL GROUP, published 2021).
No constants are given. Whether binding was seen depends on the method and setting. Some entries that bind do so weakly or less than the wild type.

Protein sequences, listed by entry. Tags and fused reporters are not part of them. Lines headed by an entry give the natural chain unless they say otherwise; changes in a name come on top.
UniProt Q9NZQ7: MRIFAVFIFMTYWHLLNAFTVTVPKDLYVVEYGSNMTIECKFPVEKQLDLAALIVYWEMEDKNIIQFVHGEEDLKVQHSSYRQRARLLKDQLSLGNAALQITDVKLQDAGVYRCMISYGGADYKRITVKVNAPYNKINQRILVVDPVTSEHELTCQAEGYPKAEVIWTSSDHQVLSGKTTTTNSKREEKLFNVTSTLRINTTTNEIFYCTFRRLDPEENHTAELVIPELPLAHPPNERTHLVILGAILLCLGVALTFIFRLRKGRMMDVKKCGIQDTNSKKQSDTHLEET

What was measured:
[1] = target: human PD-L1 on transfected cells (human) (UniProt Q9NZQ7); test: FACS on CHO/PD-L1 stable cells, anti-HuFc-PE
[2] = target: human PD-L1 on transfected cells (human) (UniProt Q9NZQ7); test: FACS stability test, week 0 in PBS pH 7.4, 1st Ab 62.5/31/15.6 ng, 2nd Ab HuFc-PE 60 ng
[3] = target: human PD-L1 on transfected cells (human) (UniProt Q9NZQ7); test: flow cytometry on CHO/PD-L1 stable cells, 1st Ab 62.5, 31, 15.6, 7.8, 3.9, 1.9 ng, 2nd Ab anti-HuFc-PE 60 ng
[4] = target: human PD-L1 on transfected cells (human) (UniProt Q9NZQ7); test: FACS stability test, week 0 in Na-citrate buffer pH 5.5, 1st Ab 62.5/31/15.6 ng, 2nd Ab label partly lost (Fc-PE) 60 ng
[5] = target: human PD-L1 on transfected cells (human) (UniProt Q9NZQ7); test: FACS stability test, week 2 in PBS pH 7.4, 1st Ab 62.5/31/15.6 ng, 2nd Ab HuFc-PE 60 ng; storage temperature of this row not given
[6] = target: human PD-L1 on transfected cells (human) (UniProt Q9NZQ7); test: FACS stability test, week 2 in Na-citrate buffer pH 5.5, 1st Ab 62.5/31/15.6 ng, 2nd Ab HuFc-PE 60 ng; storage temperature of this row not given
[7] = target: human PD-L1 on transfected cells (human) (UniProt Q9NZQ7); test: competition on MC38-PD-L1 cells: unlabeled anti-PD-L1 IgG1 against 68Ga-NOTA-anti-PD-L1 scFv, gamma counting; the blocker's concentration is not printed on the sheet (text paragraph 461: 20, 40, 80, 160 nM)

binding [1]: binds
binding [2]: binds
binding [3]: binds
binding [4]: binds
binding [5]: binds
binding [6]: binds
binding [7]: binds
B1: parental humanized IgG1 positive control antibody (antibody, V domains shown)
VH: QVQLVQSGAEVKKPGASVKVSCKASGFNIKDTYMYWVRQAPGQGLEWMGRIDPANDNTKYAQKFQGRVTITADTSTSTAYMELSSLRSEDTAVYYCARAKNLLNYFDYWGQGTLVTVSS
VL: DIQMTQSPSSLSASVGDRVTITCRASQEISGYLSWLQQKPGKAPKRLIYATSTLQSGVPSRFSGSRSGTDYTLTISSLQPEDFATYYCLQYAIYPLTFGQGTKLEIKR
notes: also called anti-PD-L1 IgG1; Anti-Human PD-L1 IgG1
